From paper doi:10.1101/099093
No constants are given. Whether binding was seen depends on the method and setting. In cells and extracts the contact can be indirect. Some entries that bind do so weakly or less than the wild type.

By UniProt entry, the sequences of proteins in these tests, tags left out. Residues count along the entry.
UniProt Q99K10, residues 46-843: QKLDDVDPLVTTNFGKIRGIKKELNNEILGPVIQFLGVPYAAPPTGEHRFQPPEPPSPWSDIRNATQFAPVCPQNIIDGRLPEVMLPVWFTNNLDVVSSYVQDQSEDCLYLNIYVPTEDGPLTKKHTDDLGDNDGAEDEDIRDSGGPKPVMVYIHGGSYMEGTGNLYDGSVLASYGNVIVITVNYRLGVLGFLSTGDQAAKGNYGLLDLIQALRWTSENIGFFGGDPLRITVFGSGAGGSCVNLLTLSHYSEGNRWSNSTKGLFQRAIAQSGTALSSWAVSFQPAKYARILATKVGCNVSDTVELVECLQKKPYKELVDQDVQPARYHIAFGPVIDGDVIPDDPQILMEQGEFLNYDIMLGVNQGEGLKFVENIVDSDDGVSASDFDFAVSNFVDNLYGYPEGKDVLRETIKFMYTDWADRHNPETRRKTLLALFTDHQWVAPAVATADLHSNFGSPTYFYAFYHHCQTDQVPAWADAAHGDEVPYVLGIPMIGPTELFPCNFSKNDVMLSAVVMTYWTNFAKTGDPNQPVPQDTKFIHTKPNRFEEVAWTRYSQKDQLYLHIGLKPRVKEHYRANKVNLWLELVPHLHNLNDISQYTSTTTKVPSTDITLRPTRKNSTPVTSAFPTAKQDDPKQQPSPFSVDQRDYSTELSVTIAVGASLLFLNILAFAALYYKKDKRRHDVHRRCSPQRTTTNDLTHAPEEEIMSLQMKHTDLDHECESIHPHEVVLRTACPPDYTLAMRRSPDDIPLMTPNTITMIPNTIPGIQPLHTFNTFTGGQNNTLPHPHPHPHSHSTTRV
UniProt P0DI97, residues 47-468: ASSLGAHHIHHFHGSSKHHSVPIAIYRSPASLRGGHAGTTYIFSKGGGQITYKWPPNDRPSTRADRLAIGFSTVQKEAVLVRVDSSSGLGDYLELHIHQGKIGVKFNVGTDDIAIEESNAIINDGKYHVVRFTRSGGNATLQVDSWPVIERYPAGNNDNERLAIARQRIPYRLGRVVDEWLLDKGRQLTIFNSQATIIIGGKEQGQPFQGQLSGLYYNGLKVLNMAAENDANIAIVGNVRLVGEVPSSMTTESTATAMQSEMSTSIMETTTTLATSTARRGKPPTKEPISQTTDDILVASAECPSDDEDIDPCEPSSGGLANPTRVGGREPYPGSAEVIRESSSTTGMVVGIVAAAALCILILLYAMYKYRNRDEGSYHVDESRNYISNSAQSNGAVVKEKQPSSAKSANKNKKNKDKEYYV

Molecular target: HA-NLGN1AB (UniProt Q99K10)
Test: proximity ligation

Substance: MYC-NRXN1B (from UniProt P0DI97 47-468)
- binding: binds
